The data set can be described thus: general procedure: solution-phase peptide synthesis; isobutyl chloroformate / N-methylmorpholine (mixed anhydride). The following applies: late stage modification step, dihydrochloride.

With “Glycyl-L-Histidyl-L-Lysyl-L-Phenylalanine”, the step yield stood at 94%.
As for “Glycyl-L-Histidyl-L-Lysyl-L-Phenylalanyl-L-Phenylalanine”, the step yield turned out to be 82%.

Values taken from patent publication US5538945A (ProCyte Corporation, priority 1994, dated 1996).
